Measured values published in patent publication US10526389B2, “Peptides and combinations of peptides for use in immunotherapy against lung cancer, including NSCLC and other cancers” (Immatics Biotechnologies GmbH, priority 2015, dated 2020).

test system: HLA-A*24-positive lung cancer (NSCLC) samples; assay: Relative LC-MS quantitation of HLA-A*24 peptide presentation on tumors vs normal tissues; set-up: species or system human; details: FIG. 1C, 1D, 1G legends; A*24

Substance | peptide was also found on (other cancers, not shown)
23 (VYTSWQIPQKF; listed as Homo sapiens) [compound 23] | prostate cancer, gastric cancer
25 (RFMDGHITF; listed as Homo sapiens) [compound 25] | prostate cancer, gastric cancer
28 (RYLDSLKAIVF; listed as Homo sapiens) [compound 28] | hepatic cancer, gastric cancer, RCC

same assay, conditions: HLA-A*24 peptides, amendment of Table 10

Substance | Additional Entities (additional tumor types showing over-presentation)
27 (RYPPPVREF; listed as Homo sapiens) [compound 27] | Brain Cancer
76 (VYTZIQSRF; listed as Homo sapiens) [compound 76] | Brain Cancer
67 (IFLDYEAGHLSF; listed as Homo sapiens) [compound 67] | Brain Cancer
40 (IYNPSMGVSVL; listed as Homo sapiens) [compound 40] | Brain Cancer
46 (NYTNGSFGSNF; listed as Homo sapiens) [compound 46] | Brain Cancer
72 (YYVDKLFNTI; listed as Homo sapiens) [compound 72] | Brain Cancer
48 (YYYGNTLVEF; listed as Homo sapiens) [compound 48] | Brain Cancer
32 (EYQPEMLEKF; listed as Homo sapiens) [compound 32] | Brain Cancer
57 (SYSIGIANF; listed as Homo sapiens) [compound 57] | Brain Cancer

same assay, conditions: HLA-A*24 peptides; over-presented on >5% of measured tumor samples, or presented on >5% with ratio of geometric means tumor vs normal >3

Substance | Other relevant organs/diseases (additional tumor types on which the peptide was found)
58 (VYFKPSLTPSGEF; listed as Homo sapiens) [compound 58] | Stomach, Liver
79 (RYGGSFAEL; listed as Homo sapiens) [compound 79] | Brain, Liver
85 (PFLQASPHF; listed as Homo sapiens) [compound 85] | Stomach
45 (KFLESKGYEF; listed as Homo sapiens) [compound 45] | Brain
27 (RYPPPVREF; listed as Homo sapiens) [compound 27] | Liver, Prostate
44 (IYNQIAELW; listed as Homo sapiens) [compound 44] | Stomach, Liver
56 (RYFPTQALNF; listed as Homo sapiens) [compound 56] | Kidney, Stomach, Liver
42 (VYVTIDENNIL; listed as Homo sapiens) [compound 42] | Kidney, Stomach
50 (LYIGWDKHYGF; listed as Homo sapiens) [compound 50] | Kidney, Stomach, Liver
51 (NYLLESPHRF; listed as Homo sapiens) [compound 51] | Liver
36 (YYGNTLVEF; listed as Homo sapiens) [compound 36] | Brain, Stomach
75 (AYPDLNEIYRSF; listed as Homo sapiens) [compound 75] | Liver
52 (SYMEVPTYLNF; listed as Homo sapiens) [compound 52] | Liver
76 (VYTZIQSRF; listed as Homo sapiens) [compound 76] | Liver, Prostate
67 (IFLDYEAGHLSF; listed as Homo sapiens) [compound 67] | Kidney, Stomach, Liver, Prostate
63 (LYINKANIW; listed as Homo sapiens) [compound 63] | Stomach, Liver
81 (KYIEAIQWI; listed as Homo sapiens) [compound 81] | Liver
49 (QYLFPSFETF; listed as Homo sapiens) [compound 49] | Stomach
73 (RYLHVEGGNF; listed as Homo sapiens) [compound 73] | Brain, Liver
71 (TYLTNHLRL; listed as Homo sapiens) [compound 71] | Liver

Substance | Other relevant organs/diseases (additional tumor types on which the peptide was found)
77 (RYLEAGAAGLRW; listed as Homo sapiens) [compound 77] | Stomach, Liver
70 (VYHSYLTIF; listed as Homo sapiens) [compound 70] | Brain, Liver
46 (NYTNGSFGSNF; listed as Homo sapiens) [compound 46] | Liver
53 (IYAGQWNDF; listed as Homo sapiens) [compound 53] | Prostate
80 (AYLKEVEQL; listed as Homo sapiens) [compound 80] | Brain, Prostate
72 (YYVDKLFNTI; listed as Homo sapiens) [compound 72] | Liver, Prostate
82 (FYQGIVQQF; listed as Homo sapiens) [compound 82] | Brain, Liver, Prostate
54 (AYKDKDISFF; listed as Homo sapiens) [compound 54] | Kidney, Brain
28 (RYLDSLKAIVF; listed as Homo sapiens) [compound 28] | Kidney, Liver
59 (HYFNTPFQL; listed as Homo sapiens) [compound 59] | Kidney, Brain, Liver, Prostate
160 (SYLQAANAL; listed as Homo sapiens) [compound 160] | Stomach
78 (IYTRVTYYL; listed as Homo sapiens) [compound 78] | Stomach, Prostate
84 (TFDVAPSRLDF; listed as Homo sapiens) [compound 84] | Liver, Prostate
37 (RYLEYFEKI; listed as Homo sapiens) [compound 37] | Brain, Liver, Prostate
33 (TYSEKTTLF; listed as Homo sapiens) [compound 33] | Stomach
66 (DYIPQLAKF; listed as Homo sapiens) [compound 66] | Kidney, Liver
61 (RYGSPINTF; listed as Homo sapiens) [compound 61] | Liver, Prostate
69 (TYAALNSKATF; listed as Homo sapiens) [compound 69] | Liver
41 (TYIGQGYII; listed as Homo sapiens) [compound 41] | Brain, Stomach, Liver, Prostate

test system: HLA-A*24-positive lung cancer (NSCLC) samples; assay: as above; set-up: species or system human; key: very highly over-presented on tumors compared to a panel of normal tissues (+++); highly over-presented on tumors compared to a panel of normal (healthy) tissues (++); over-presented on tumors compared to a panel of normal tissues (+); details: HLA-A*24 peptides; tumors compared to a panel of normal tissues

Substance | Peptide Presentation (presentation score)
DDX5-007 (NYTNGSFGSNF; listed as Homo sapiens) | +++
KLRD-001 (QYLFPSFETF; listed as Homo sapiens) | +++
RYTLHINTL (listed as Homo sapiens) [SEQ ID No. 43] | +++
COLEC12-001 (IYAGQWNDF; listed as Homo sapiens) | +++
SYPAKLSFI (listed as Homo sapiens) [SEQ ID No. 60] | +++
OLFML2B-002 (YYYGNTLVEF; listed as Homo sapiens) | +++
DCSTA-001 (KYIEAIQWI; listed as Homo sapiens) | +++
SYLDKVRAL (listed as Homo sapiens) [SEQ ID No. 31] | +++
XPR-001 (VYPLALYGF; listed as Homo sapiens) | +++
ZBED5-001 (AYKDKDISFF; listed as Homo sapiens) | +++
IYPVKYTQTF (listed as Homo sapiens) [SEQ ID No. 55] | +++
TRPM2-001 (VYHSYLTIF; listed as Homo sapiens) | +++
HSPBP-001 (RYLEAGAAGLRW; listed as Homo sapiens) | +++
KFLEHTNFEF (listed as Homo sapiens) [SEQ ID No. 39] | +++
AHD-001 (EYSDVLAKLAF; listed as Homo sapiens) | +++
SP14-001 (AYPDLNEIYRSF; listed as Homo sapiens) | +++
AIFM2-001: peptide found in AIFM2 (gene looked up) (AYKPGALTF; listed as Homo sapiens) | +++
G2E-002 (LYINKANIW; listed as Homo sapiens) [Peptide G2E-002] | +++
TPS-001 (IYTRVTYYL; listed as Homo sapiens) | +++
SAMD9L-001 (IYQRWKDLL; listed as Homo sapiens) | +++
RASA2-001 (YYVDKLFNTI; listed as Homo sapiens) | +++
NUP153-001 (VYFKPSLTPSGEF; listed as Homo sapiens) | +++
